Paper PMC5521874
Positions count from the first letter of the chain named. In names and notes the source's numbering stands. No constants are given. Whether binding was seen depends on the method and setting. For part of these data: Binding seen in cells or lysates may run through a third protein. Some entries that bind do so weakly or less than the wild type. Where a sequence is shown, tags or fusion partners need not be part of it. Values belong to the binder of their own block, whether it stands above or below them.

What was measured:
[1] = target: T1, YFP-claudin-10b WT / CFP-claudin-10b WT (human) (UniProt P78369); experiment: FRET or BRET; cis-interaction; HEK293 cells co-transfected with CFP- and YFP-claudin-10b plasmids; acceptor bleaching at cell-cell contacts; FRET efficiency plotted against YFP/CFP ratio
T1 sequence: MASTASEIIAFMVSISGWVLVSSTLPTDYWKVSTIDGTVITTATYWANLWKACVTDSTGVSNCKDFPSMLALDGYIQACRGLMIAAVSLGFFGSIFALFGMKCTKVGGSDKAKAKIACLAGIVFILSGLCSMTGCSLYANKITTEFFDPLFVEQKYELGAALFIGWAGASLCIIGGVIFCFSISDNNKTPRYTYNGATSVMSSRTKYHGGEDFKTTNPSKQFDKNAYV

[2] = target: T1, YFP-claudin-10b WT / CFP-claudin-10b WT (human); experiment: FRET or BRET; cis-interaction; MDCK-C7 cells (with endogenous claudins and TJs) expressing CFP- and YFP-tagged claudin-10b; FRET efficiency plotted against YFP/CFP ratio
[3] = target: T1, YFP-claudin-10b WT / CFP-claudin-10b WT (human); experiment: cellular contact enrichment assay (live cell imaging); trans-interaction; transiently transfected HEK293 cells (no TJs); enrichment factor of fluorescence at contacts between two claudin-expressing cells; HBSS pH 7.4
[4] = target: T1, YFP-claudin-10b WT / CFP-claudin-10b WT (human); experiment: cellular contact enrichment assay (live cell imaging); trans-interaction; stable HEK293 lines, co-cultures of cells expressing either YFP- or CFP-fusion proteins; enrichment of co-localized YFP and CFP at mixed cell contacts (enrichment factor x length)
[5] = target: claudin-10b-wt-AcGFP (human) (UniProt P78369); experiment: cellular contact enrichment assay (live cell imaging); trans-interaction; transiently transfected HEK293 cells (no TJs); enrichment factor of fluorescence at contacts between two claudin-expressing cells; HBSS pH 7.4

binding [1]: binds
binding [2]: binds
binding [3]: binds
binding [4]: binds
B1: YFP-claudin-10b WT / CFP-claudin-10b WT (protein, UniProt P78369-1 1-228)
chain: T1 sequence

binding [1]: binds
B2: YFP-claudin-10b N48K / CFP-claudin-10b N48K (protein, UniProt P78369-1 1-228)
chain: T1 sequence with N48K

binding [5]: binds
B3: claudin-10b-wt-AcGFP (protein, UniProt P78369-1 1-228)
chain: T1 sequence
